For one molecule, binding results are on record in PMC12704088.

Sequences of proteins named here, by UniProt entry; tags and fusion partners are left off.
UniProt P21333: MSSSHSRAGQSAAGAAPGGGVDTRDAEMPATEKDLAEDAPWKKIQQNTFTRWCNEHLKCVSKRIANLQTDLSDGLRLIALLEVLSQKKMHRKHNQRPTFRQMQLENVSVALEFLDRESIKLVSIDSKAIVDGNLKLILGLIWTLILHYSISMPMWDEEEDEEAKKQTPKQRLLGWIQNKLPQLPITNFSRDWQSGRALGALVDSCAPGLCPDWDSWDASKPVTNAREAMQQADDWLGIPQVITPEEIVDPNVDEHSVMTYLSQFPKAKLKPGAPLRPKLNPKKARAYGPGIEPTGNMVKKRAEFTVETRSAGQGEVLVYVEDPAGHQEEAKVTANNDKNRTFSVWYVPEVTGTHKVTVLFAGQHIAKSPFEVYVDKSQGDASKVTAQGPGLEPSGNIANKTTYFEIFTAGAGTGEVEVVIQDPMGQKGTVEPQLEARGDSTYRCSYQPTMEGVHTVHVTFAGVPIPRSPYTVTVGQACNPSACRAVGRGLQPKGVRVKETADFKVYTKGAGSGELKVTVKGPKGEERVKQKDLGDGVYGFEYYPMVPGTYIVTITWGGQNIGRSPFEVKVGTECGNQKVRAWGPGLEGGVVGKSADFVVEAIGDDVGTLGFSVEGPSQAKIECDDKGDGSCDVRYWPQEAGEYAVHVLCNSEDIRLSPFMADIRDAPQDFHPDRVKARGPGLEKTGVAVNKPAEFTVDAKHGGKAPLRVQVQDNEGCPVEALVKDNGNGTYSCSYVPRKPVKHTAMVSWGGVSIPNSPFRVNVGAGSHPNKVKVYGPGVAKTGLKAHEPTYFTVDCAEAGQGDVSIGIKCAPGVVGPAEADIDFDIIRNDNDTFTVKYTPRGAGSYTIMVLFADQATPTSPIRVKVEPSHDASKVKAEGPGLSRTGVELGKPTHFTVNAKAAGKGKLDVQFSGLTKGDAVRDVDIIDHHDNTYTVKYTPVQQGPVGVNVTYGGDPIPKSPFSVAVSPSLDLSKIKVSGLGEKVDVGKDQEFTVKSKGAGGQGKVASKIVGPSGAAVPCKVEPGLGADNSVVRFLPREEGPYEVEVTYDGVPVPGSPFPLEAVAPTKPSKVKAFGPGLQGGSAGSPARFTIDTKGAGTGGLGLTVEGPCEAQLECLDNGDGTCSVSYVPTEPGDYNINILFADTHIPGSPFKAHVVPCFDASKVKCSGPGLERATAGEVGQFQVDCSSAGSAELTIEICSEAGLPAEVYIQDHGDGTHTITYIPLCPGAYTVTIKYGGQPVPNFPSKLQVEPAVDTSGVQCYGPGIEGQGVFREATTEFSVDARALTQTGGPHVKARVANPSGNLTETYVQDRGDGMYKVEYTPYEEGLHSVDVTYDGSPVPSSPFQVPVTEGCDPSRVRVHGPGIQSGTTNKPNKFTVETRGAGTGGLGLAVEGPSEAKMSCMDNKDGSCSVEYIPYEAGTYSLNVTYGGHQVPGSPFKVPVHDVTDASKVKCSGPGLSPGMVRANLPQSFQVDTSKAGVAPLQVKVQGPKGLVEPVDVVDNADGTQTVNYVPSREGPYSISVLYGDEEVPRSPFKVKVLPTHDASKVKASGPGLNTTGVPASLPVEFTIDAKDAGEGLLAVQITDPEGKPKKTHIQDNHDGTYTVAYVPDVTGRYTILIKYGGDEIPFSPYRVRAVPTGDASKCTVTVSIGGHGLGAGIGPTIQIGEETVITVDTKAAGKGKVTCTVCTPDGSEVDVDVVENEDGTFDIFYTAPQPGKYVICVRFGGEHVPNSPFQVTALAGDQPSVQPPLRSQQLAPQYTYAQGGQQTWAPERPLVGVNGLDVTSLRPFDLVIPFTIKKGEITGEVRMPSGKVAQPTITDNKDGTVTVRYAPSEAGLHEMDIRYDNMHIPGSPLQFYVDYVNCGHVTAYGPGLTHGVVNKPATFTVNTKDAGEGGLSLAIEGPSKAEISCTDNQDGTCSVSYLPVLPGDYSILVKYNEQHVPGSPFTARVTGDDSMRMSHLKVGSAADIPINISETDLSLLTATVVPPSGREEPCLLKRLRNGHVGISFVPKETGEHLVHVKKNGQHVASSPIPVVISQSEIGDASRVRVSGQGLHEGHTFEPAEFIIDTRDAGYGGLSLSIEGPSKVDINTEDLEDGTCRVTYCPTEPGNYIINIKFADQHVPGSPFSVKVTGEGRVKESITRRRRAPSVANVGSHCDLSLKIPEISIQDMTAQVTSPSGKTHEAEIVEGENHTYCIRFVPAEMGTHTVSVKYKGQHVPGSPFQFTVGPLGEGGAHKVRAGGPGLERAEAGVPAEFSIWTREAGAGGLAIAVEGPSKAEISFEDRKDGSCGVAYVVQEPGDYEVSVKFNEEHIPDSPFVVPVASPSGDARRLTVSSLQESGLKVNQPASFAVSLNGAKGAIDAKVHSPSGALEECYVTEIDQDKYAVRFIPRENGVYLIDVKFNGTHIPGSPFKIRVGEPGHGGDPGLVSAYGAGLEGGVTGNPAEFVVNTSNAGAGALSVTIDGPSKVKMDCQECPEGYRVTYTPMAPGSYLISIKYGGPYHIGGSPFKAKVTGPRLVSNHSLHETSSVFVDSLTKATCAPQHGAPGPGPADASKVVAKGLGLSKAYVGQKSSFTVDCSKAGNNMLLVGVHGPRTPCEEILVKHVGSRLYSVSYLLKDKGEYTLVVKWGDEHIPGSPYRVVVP

These are yes or no findings as the source states them, for the method shown. In cells and extracts the contact can be indirect. Some binding calls cover weakened binding; strength is not graded here.

The target of this assay is Filamin A (FLNA), endogenous (human (endogenous in HepG2, HLF, HuH7, Hep3B and human organoids)) (UniProt P21333). Kind of assay: proximity ligation; DuoLink in situ PLA with anti-DLC1, anti-FLNA and anti-MRTF-A antibodies in fixed HepG2, HLF, HuH7, Hep3B cells and monolayers of human organoids; treatments: HA-FLNA-ABD or GFP-DLC1 expression, tat-DLC1bp, HA-100, EGF, LPA, Latrunculin B, S14C-actin, RhoAV14.

B1: Myocardin-related transcription factor A (MRTF-A), endogenous (protein, UniProt Q969V6 1-931)
chain: MPPLKSPAAFHEQRRSLERARTEDYLKRKIRSRPERSELVRMHILEETSAEPSLQAKQLKLKRARLADDLNEKIAQRPGPMELVEKNILPVESSLKEAIIVGQVNYPKVADSSSFDEDSSDALSPEQPASHESQGSVPSPLEARVSEPLLSATSASPTQVVSQLPMGRDSREMLFLAEQPPLPPPPLLPPSLTNGTTIPTAKSTPTLIKQSQPKSASEKSQRSKKAKELKPKVKKLKYHQYIPPDQKQDRGAPPMDSSYAKILQQQQLFLQLQILNQQQQQHHNYQAILPAPPKSAGEALGSSGTPPVRSLSTTNSSSSSGAPGPCGLARQNSTSLTGKPGALPANLDDMKVAELKQELKLRSLPVSGTKTELIERLRAYQDQISPVPGAPKAPAATSILHKAGEVVVAFPAARLSTGPALVAAGLAPAEVVVATVASSGVVKFGSTGSTPPVSPTPSERSLLSTGDENSTPGDTFGEMVTSPLTQLTLQASPLQILVKEEGPRAGSCCLSPGGRAELEGRDKDQMLQEKDKQIEALTRMLRQKQQLVERLKLQLEQEKRAQQPAPAPAPLGTPVKQENSFSSCQLSQQPLGPAHPFNPSLAAPATNHIDPCAVAPGPPSVVVKQEALQPEPEPVPAPQLLLGPQGPSLIKGVAPPTLITDSTGTHLVLTVTNKNADSPGLSSGSPQQPSSQPGSPAPAPSAQMDLEHPLQPLFGTPTSLLKKEPPGYEEAMSQQPKQQENGSSSQQMDDLFDILIQSGEISADFKEPPSLPGKEKPSPKTVCGSPLAAQPSPSAELPQAAPPPPGSPSLPGRLEDFLESSTGLPLLTSGHDGPEPLSLIDDLHSQMLSSTAILDHPPSPMDTSELHFVPEPSSTMGLDLADGHLDSMDWLELSSGGPVLSLAPLSTTAPSLFSTDFLDGHDLQLHWDSCL
As to B1, the binding entry is recorded as “binds”.
